From article PMC7862700
Some of the results follow. The source does not settle which construct or isoform was used.

Target: T1, ELF2 (UniProt Q15723)
T1 sequence: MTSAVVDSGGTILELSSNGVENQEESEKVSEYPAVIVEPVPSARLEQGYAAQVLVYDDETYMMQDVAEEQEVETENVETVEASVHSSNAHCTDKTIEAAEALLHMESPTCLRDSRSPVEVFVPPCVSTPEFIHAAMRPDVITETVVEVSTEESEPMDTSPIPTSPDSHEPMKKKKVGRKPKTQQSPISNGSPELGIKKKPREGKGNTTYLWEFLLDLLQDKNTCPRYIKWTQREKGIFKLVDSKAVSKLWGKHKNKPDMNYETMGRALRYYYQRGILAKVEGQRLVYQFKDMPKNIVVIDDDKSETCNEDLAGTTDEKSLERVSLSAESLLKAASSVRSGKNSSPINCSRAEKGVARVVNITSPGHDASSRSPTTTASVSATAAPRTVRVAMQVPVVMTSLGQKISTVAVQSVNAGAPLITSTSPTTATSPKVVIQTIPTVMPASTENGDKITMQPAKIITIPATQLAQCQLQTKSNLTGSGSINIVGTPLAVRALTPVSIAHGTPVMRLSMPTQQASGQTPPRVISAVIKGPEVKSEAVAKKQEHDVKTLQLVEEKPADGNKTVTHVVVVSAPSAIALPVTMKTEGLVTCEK
Test: DAPPL (digital affinity profiling via proximity ligation, sequencing)
Conditions: 10 mM Tris-HCl pH 7.5, 50 mM NaCl, 1 mM DTT, 4% glycerol, room temperature, 30 min; GST-TFs on glutathione beads, 16-mer random dsDNA library, 0.1% …; high values mean tight binding; double strand, one strand shown; scale: fold enrichment (6-mer frequency, TF over GST control)

Sequence | binding signal
ACATAT | 1.26
AACATC | 1.51
GTTCCA | 1.03
CTTTCC | 2.21
CAATAT | 1.28
ATCACC | 1.07
AAAGAA | 1.26
CGTACT | 1.21
GAAATG | 1.91
TTTTAA | 1.22
TCTGCT | 1.23
ATGTAA | 1.24
CGGCTA | 1.1
CTATGA | 1.04
TCCCCT | 1.58
ACTTAC | 1.16
CTCTAA | 1.25
TTCTTC | 2.21
ATTTGG | 1.33
GCCTTC | 1.68

In another format: results already given
Sequence,binding signal
ACATAT,1.26
CTATGA,1.04

The results go on:

Sequence | binding signal
TACAAG | 1
GTTAAC | 1.12
AACTCG | 1.34
ATAGTA | 1.14
GATATA | 1.23
AAGAAA | 1.18
ACTACC | 1.91
TCTGAT | 1.07
GTACAT | 1.32
TCCTCC | 1.51
CCGCTA | 1.46
CAAAAA | 1.11
TTCACT | 1.35
TGTATC | 1.4
GCTTCG | 1.28
AATAAG | 1.32
ACTTCA | 1.38
TGCCGC | 1.22
ACTTTA | 1.16
